Here are results for seven molecules from the M2OR odorant receptor database.

Holding throughout (details): stereoisomer not certain
The test system of one test is T1, OR9G4.
T1 sequence (whole entry): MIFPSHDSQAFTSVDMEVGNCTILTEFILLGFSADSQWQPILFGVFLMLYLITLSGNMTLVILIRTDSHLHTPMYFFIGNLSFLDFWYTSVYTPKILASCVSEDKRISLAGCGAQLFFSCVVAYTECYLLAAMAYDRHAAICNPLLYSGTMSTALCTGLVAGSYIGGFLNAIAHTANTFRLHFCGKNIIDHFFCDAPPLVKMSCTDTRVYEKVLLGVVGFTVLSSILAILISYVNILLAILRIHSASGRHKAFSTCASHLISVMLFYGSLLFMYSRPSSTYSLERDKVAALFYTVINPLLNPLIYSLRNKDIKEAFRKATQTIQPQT
The gist of the method: (§1)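 Whether a receptor–molecule pair is responsive (active) rests on the original authors' judgment that its measured signal was statistically different from baseline. Pairs without that judgment are non-responsive (inactive). Sources used varied assay methods, commonly transient luciferase assays in mammalian cell lines.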

The test system of test [1] is T2, OR9G9.
T2 sequence (whole entry): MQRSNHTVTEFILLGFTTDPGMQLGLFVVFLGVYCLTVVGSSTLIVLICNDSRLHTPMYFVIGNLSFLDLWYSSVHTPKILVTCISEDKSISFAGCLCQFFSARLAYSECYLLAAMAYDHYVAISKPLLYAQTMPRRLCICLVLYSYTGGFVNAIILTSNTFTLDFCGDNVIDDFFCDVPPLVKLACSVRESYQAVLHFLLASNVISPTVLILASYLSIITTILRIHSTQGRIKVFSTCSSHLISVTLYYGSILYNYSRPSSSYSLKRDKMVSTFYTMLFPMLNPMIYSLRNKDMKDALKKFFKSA
The procedure, abridged:
as §1

Test [2] relates to T3, OR9G9.
T3 sequence (whole entry): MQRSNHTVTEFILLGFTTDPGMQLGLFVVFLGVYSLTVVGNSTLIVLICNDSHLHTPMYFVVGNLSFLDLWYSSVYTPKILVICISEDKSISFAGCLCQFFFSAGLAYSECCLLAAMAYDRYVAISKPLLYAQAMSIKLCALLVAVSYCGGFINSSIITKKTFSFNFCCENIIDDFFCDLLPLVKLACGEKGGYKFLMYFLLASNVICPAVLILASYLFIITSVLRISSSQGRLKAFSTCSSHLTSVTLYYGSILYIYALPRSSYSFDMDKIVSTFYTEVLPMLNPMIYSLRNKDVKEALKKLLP
The procedure, abridged: as §1
This is another data set of the same source.

For another test, the target named is T4, OR9I1 (Homo sapiens) (UniProt Q8NGQ6).
T4 sequence (whole entry): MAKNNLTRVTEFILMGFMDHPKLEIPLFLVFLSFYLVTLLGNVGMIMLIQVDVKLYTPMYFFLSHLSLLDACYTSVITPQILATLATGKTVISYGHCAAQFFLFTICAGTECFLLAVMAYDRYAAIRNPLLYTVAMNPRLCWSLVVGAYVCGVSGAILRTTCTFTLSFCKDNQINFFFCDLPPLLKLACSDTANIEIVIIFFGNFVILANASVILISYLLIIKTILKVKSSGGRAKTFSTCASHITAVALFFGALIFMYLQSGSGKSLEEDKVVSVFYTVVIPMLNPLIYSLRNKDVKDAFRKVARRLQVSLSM
The gist of the method:
as §1

Another test has as its target T5, OR9K2 (Homo sapiens) (UniProt Q8NGE7).
T5 sequence (whole entry): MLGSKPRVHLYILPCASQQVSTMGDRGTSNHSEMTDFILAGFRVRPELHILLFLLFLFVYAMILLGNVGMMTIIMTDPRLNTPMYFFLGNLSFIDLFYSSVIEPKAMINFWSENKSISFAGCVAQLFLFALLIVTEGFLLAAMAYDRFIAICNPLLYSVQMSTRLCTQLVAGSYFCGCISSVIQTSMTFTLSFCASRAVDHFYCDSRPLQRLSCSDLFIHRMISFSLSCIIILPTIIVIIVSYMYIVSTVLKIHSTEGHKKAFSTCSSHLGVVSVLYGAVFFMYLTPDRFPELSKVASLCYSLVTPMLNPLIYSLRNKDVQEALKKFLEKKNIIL
The gist of the method:
as §1

A further test has as its target T6, OR9Q2 (Homo sapiens) (UniProt Q8NGE9).
T6 sequence (whole entry): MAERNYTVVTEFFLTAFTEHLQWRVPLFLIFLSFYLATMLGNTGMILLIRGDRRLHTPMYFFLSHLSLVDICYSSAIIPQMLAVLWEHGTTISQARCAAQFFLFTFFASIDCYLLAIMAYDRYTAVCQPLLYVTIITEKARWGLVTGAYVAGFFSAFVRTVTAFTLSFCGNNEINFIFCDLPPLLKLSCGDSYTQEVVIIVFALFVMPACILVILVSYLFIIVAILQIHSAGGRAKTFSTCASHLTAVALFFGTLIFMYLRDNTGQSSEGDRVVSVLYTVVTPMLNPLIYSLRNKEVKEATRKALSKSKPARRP
The gist of the method:
as §1

Another test deals with T7, OR9Q2.
T7 sequence (whole entry): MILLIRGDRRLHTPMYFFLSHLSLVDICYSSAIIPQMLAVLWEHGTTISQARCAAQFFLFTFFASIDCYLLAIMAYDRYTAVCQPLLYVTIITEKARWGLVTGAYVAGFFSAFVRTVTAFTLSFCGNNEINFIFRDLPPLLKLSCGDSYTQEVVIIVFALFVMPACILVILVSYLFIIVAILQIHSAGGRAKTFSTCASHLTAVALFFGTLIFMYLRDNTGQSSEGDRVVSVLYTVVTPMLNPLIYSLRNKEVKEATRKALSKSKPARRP
The procedure, abridged: as §1

A further test concerns T8, ORM2B.
T8 sequence (whole entry): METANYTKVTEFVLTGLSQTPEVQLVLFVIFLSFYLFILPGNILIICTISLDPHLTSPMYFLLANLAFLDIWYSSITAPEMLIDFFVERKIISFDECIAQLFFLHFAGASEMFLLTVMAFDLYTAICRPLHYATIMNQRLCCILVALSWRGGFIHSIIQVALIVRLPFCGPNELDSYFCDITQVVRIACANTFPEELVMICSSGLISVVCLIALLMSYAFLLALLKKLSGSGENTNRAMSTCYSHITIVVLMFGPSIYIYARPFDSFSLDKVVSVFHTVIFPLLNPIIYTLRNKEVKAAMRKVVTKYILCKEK
The procedure, abridged:
as §1

A further test deals with T9, OR9Q1.
T9 sequence (whole entry): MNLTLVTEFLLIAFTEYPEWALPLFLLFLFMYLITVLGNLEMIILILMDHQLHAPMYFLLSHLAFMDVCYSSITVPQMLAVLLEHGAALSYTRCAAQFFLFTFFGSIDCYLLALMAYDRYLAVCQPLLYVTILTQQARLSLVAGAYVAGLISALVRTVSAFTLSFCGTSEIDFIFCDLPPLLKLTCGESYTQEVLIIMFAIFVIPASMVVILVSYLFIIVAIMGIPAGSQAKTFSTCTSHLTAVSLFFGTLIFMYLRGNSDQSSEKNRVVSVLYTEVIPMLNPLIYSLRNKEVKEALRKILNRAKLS
The procedure, abridged: as §1

The target in the next test is T10, Or10j5 (Mus musculus) (UniProt Q62007).
T10 sequence (whole entry): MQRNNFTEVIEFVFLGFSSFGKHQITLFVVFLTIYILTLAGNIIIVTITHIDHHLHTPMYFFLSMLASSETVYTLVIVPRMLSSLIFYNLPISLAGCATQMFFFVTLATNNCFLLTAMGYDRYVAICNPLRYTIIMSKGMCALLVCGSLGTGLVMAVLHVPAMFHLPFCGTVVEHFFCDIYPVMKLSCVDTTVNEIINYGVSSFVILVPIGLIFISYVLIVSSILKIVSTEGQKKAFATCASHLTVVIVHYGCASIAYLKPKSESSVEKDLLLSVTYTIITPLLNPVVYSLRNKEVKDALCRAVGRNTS
The gist of the method: as §1

The next test deals with T11, Or1m1 (Mus musculus) (UniProt Q8VFM9).
T11 sequence (whole entry): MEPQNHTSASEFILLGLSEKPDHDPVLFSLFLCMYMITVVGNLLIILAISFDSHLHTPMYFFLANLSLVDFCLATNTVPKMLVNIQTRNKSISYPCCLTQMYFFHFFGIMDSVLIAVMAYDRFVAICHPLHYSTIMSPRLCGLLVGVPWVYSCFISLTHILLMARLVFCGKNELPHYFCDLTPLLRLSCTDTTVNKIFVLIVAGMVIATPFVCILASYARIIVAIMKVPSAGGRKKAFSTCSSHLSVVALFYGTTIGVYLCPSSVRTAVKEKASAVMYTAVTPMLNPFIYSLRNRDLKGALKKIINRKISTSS
The procedure, abridged:
as §1

In a further test the target is T12, Or5ar1 (Mus musculus) (UniProt Q8VGS3).
T12 sequence (whole entry): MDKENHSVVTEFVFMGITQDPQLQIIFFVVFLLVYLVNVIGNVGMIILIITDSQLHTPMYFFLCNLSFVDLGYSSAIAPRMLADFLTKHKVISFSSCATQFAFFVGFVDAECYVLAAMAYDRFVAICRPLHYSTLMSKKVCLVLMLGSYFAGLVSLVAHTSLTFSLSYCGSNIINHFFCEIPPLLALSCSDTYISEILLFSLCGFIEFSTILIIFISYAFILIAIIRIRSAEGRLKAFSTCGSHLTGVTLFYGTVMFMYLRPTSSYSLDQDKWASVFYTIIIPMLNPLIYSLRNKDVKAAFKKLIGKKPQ
The procedure, abridged: as §1

The target of another test is T13, Or2c1 (Mus musculus) (UniProt P23275).
T13 sequence (whole entry): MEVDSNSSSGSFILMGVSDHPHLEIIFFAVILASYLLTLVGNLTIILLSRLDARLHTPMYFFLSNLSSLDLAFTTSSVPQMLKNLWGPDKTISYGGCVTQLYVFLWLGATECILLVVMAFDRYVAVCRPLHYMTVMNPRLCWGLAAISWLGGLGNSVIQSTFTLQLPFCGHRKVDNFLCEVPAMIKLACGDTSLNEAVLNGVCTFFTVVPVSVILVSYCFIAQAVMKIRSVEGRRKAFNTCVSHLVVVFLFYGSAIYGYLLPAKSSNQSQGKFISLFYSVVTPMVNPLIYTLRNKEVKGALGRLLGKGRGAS
The gist of the method: as §1

The list shows a part of the results, in another mix than the full data. The calls were merged from several studies; some rest on single wells. The list shows a part of the results. Some of the results follow.
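Further: active if original authors judged signal statistically different from baseline.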

Take `CC1=NC(C)SC1C` (centres undefined): the “odorant receptor agonist call” value in the test with OR9G4, with OR9G9 [1], in the test on OR9G9 [2], with OR9I1 (Homo sapiens), with OR9K2 (Homo sapiens) and with OR9Q2 (Homo sapiens) was “inactive” in each case. For the same molecule, the “odorant receptor agonist call” value in the test with ORM2B is “inactive”. The “odorant receptor agonist call” value with OR9Q2 is “active”.
Take `CC(C)CC(=O)O`: the “odorant receptor agonist call” value in the test on OR9G4, in the test with OR9G9 [1], with OR9G9 [2], with OR9I1 (Homo sapiens), with OR9K2 (Homo sapiens) and in the test with OR9Q2 (Homo sapiens) was “inactive” throughout. Besides, the “odorant receptor agonist call” value in the test with OR9Q2, in the test on ORM2B, in the test with Or10j5 (Mus musculus), with Or1m1 (Mus musculus) and with Or5ar1 (Mus musculus) was “inactive” each time. In addition, in the test with OR9Q1, the “odorant receptor agonist call” value was “active”.
Regarding `CCCCCC(C)=O`, the “odorant receptor agonist call” value in the test on OR9G4, in the test on OR9G9 [1], with OR9G9 [2], with OR9I1 (Homo sapiens), with OR9K2 (Homo sapiens) and in the test with OR9Q2 (Homo sapiens) was “inactive” each time. Also, the “odorant receptor agonist call” value with OR9Q2, with ORM2B, in the test with Or1m1 (Mus musculus), with Or2c1 (Mus musculus) and with Or5ar1 (Mus musculus) was “inactive” in each case.
Regarding `O=C1CCCCCCCCCCCCCCO1`, the “odorant receptor agonist call” value in the test on OR9G4, in the test with OR9G9 [1], in the test with OR9G9 [2], with OR9I1 (Homo sapiens), in the test with OR9K2 (Homo sapiens) and in the test on OR9Q1 was “inactive” throughout. The “odorant receptor agonist call” value with OR9Q2 (Homo sapiens), in the test with OR9Q2, in the test with ORM2B, with Or1m1 (Mus musculus) and with Or5ar1 (Mus musculus) was “inactive” in each case.
In the case of `C=CC(C)(O)CCC=C(C)C` (centres undefined), the “odorant receptor agonist call” value in the test on OR9G4, with OR9G9 [1], in the test with OR9G9 [2], in the test with OR9I1 (Homo sapiens), in the test with OR9K2 (Homo sapiens) and in the test on OR9Q1 was “inactive” throughout. Moreover, the “odorant receptor agonist call” value in the test with OR9Q2 (Homo sapiens), in the test on OR9Q2, in the test on ORM2B, in the test with Or1m1 (Mus musculus) and with Or5ar1 (Mus musculus) was “inactive” in each case.
For the molecule `CC(C)(O)CCCC1=CCC(C=O)CC1` (centres undefined), the “odorant receptor agonist call” value in the test with OR9Q1, with Or1m1 (Mus musculus) and in the test with Or5ar1 (Mus musculus) was “inactive” throughout. Moreover, the “odorant receptor agonist call” value with Or10j5 (Mus musculus) and in the test with Or2c1 (Mus musculus) was “active” in each case.
For the molecule `COc1cc(C=O)ccc1O`, the “odorant receptor agonist call” value in the test with OR9G4, with OR9G9 [1], in the test on OR9G9 [2], with OR9I1 (Homo sapiens), in the test with OR9K2 (Homo sapiens) and in the test on OR9Q1 was “inactive” in each case. Moreover, the “odorant receptor agonist call” value in the test with OR9Q2 (Homo sapiens), with OR9Q2, with ORM2B, with Or1m1 (Mus musculus) and with Or5ar1 (Mus musculus) was “inactive” in each case.
